From doi:10.1101/2025.01.31.636011
No constants are given. Whether binding was seen depends on the method and setting. Some entries that bind do so weakly or less than the wild type. Where a sequence is shown, tags or fusion partners need not be part of it.

B1: PgBamJ (PGN_1188) (protein, UniProt B2RK12 24-203)
chain: CKKSDIKSLKEMKKDERKAIESFINRMGFTIKEGHEGQSEFDPDIMYHFDNDLYMQVLDKGKEPPVLNKTKINVRMEGFMFNRERDSIYVFNSLTSGGFQESVFRYIYKYNDGDIHFELIKCTTGSNLDMFVCEGVAFPMTMLGNKARVRLIVPFRIGPESLYSRGLTGYYKEVEYVFRD

Target: T1, PgBamG (PGN_1735) with a C-terminal 7His-tag (Porphyromonas gingivalis) (UniProt B2RLK9)
T1 sequence (chain, tri-acylated lipid anchor; O-glycosylation, 7 sites): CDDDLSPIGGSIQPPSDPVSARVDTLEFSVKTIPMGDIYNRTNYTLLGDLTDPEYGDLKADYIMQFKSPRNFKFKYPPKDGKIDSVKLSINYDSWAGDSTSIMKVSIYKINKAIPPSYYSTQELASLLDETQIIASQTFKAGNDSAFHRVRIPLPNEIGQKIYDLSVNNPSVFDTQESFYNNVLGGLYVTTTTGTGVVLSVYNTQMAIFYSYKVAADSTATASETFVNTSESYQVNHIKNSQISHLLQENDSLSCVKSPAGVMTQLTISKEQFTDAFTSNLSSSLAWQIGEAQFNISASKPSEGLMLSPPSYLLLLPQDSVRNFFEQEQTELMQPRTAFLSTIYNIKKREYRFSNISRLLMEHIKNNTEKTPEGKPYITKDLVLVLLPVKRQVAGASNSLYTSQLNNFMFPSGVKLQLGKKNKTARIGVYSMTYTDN
Experiment: cryo-EM structure

Molecule | binding
PgBamH (PGN_0296) (from UniProt B2RHH0 26-387) | binds
B1 | binds
